# Screen size: about 300,000 compounds; about 5,400 (1.8%) were called active. Inconclusive means that the source gave no clear call. Such entries were picked first, then a sample of the others. Calls come from the whole dose curve; tested in HEK293 cells. Where the call is inconclusive, the potency comes from a doubtful curve fit.
# Assay: qHTS for inhibitors of binding or entry into cells for Marburg Virus
# Conditions: Marburg virus pseudotyped entry inhibition, cell reporter; activity change, negative = inhibition: at 37.8 µM (top of the series) unless noted
# % is set by controls: 0 for no effect and ±100 for the full control effect; potency is the fitted concentration of half-maximal effect.
SMILES,Potency,"activity change, negative = inhibition"
O=C1c2ccccc2NC(c2cccc([N+](=O)[O-])c2)N1CCc1ccccc1 (configuration not stated),"inconclusive: 35.5 µM [inhibitor, single point]",–
COc1ccc(N2CCN(c3cc(C)c4ccc(C)cc4n3)CC2)cc1,"inconclusive: 17.8 µM [inhibitor, partial curve, poor fit]",–
Cc1cccc(NC(=O)Cn2cc(C(=O)C3CCCCC3)c3ccccc32)c1C,"inconclusive: 2.51 µM [inhibitor, full curve]",–
O=C(CSc1nnnn1Cc1ccccc1)N1CCN(c2ccccc2)CC1,"inconclusive: 0.461 µM [inhibitor, partial curve, poor fit]",–
Cc1ccc(-c2nc3cc(N)ccc3o2)cc1Br,"inconclusive: 35.5 µM [inhibitor, single point]",–
Clc1ccc2sc(C3CCNCC3)nc2c1,"inconclusive: 5.62 µM [activator, single point]",–
COc1cc(C(=O)NCCC(c2ccccc2)c2ccccc2)cc(OC)c1OC,"inconclusive: 1.78 µM [inhibitor, partial curve, poor fit]",–
COc1ccc2cc(S(=O)(=O)N3CCCCC3)ccc2c1S(=O)(=O)N1CCCCC1,"inconclusive: 3.16 µM [inhibitor, partial curve, poor fit]",–
c1ccn2c(SCc3cn4ccsc4n3)nnc2c1,inactive,–
CN(C(=O)COC(=O)c1cc(S(=O)(=O)N2CCOCC2)c(Cl)cc1Cl)C1CCS(=O)(=O)C1 (configuration not stated),"inconclusive: 3.16 µM [inhibitor, partial curve, poor fit]",–
CC1=C(C(=O)Nc2ccccc2)C(c2cccs2)n2nc(SCc3ccccc3F)nc2N1 (configuration not stated),"inconclusive: 35.5 µM [activator, single point]",–
COc1ccc(N2CCN(c3ncnc4scc(-c5ccc(C)cc5)c34)CC2)cc1,"inconclusive: 35.5 µM [inhibitor, single point]",–
Cc1ccc(OCC(=O)c2cc(C)n(Cc3ccco3)c2C)c([N+](=O)[O-])n1,"inconclusive: 8.2 µM [inhibitor, partial curve]",–
Clc1ccc(-n2nnnc2Sc2ncnc3sccc23)cc1,"inconclusive: 17.8 µM [inhibitor, partial curve, poor fit]",–
CC(=O)c1c(N2CCN(C)CC2)[nH]c(-c2ccccc2)nc1=S,"inconclusive: 35.5 µM [inhibitor, single point]",–
Cc1c(C)[n+](=O)c2c(n1[O-])C(Br)CCC2Br (configuration not stated),inactive,–
CCN(CC)C(=O)Cn1cc(SCC(=O)NC)c2ccccc21,inactive,–
Cc1ccc2nc(Nc3ccccc3)c(/C=N/O)c(=O)n2c1,inactive,–
O=C(Nc1ccccc1Br)c1ccc2nccnc2c1,"inconclusive: 11.2 µM [inhibitor, partial curve, poor fit]",–
C=CCN=C1NN=C(c2cc(C)n(CC=C)c2C)CS1,"inconclusive: 3.98 µM [inhibitor, full curve]",–
CNC(=O)C1C2C=CC3(O2)C1C(=O)N(CCOC)C3C(=O)NCc1ccc(OC)cc1 (configuration not stated),"inconclusive: 35.5 µM [activator, single point]",–

SMILES,Potency,"activity change, negative = inhibition"
CCOC(=O)C(=NC1CCS(=O)(=O)C1)NNc1ccc(Br)cc1 (configuration not stated),"inconclusive: 3.55 µM [inhibitor, partial curve, poor fit]",–
COc1cc(/C=C/C(=O)c2c(O)n(CCc3ccccc3)c(=O)[nH]c2=O)ccc1O,"inconclusive: 35.5 µM [inhibitor, single point]",–
Cc1ccnc(NC(=O)CCC(=O)N(CC(=O)NC2CCCCC2)Cc2ccccc2)c1,–,inconclusive: 12.6% [activator] [at 46.1 µM]
COc1ccc2c(c1)c1nnc(SCC(=O)N3C(C)CCCC3C)nc1n2C (configuration not stated),"inconclusive: 23.1 µM [inhibitor, partial curve, poor fit]",–
Nc1nccc(-c2cc(-c3ccc(Cl)cc3Cl)no2)n1,active: 14.1 µM,–
COC(=O)c1c(Cc2ccccc2Cl)c[nH]c1C,"inconclusive: 35.5 µM [inhibitor, single point]",–
O=C(CC1CCCCC1)N1CCCC(c2nc(-c3ccc(S(=O)(=O)N4CCCC4)cc3)no2)C1 (configuration not stated),inactive,–
CSc1ccc(C(=O)C2CCCN(C(=O)CCc3c(C)nn(C)c3C)C2)cc1 (configuration not stated),"inconclusive: 6.31 µM [inhibitor, single point]",–
CCc1ccccc1N(CC)C(=O)CCc1nc(-c2ccc(C)cc2)no1,"inconclusive: 35.5 µM [inhibitor, single point]",–
COc1ccccc1C(=O)Nc1sc(C(=O)N2CCCC2)c(C)c1C#N,"inconclusive: 15.8 µM [activator, partial curve, poor fit]",–
Cc1[nH]nc(SCC(=O)NCc2ccccc2)c1[N+](=O)[O-],inactive,–
CC(C)c1cccc(OCCn2c(-c3ccc(Cl)cc3)nc3ccccc3c2=O)c1,inactive,–
Cc1ccc2cc(C#N)c(NCc3ccco3)nc2c1,"inconclusive: 20 µM [inhibitor, single point]",–
O=C1OC2(CCCCC2)CC2=C1[C@H]1O[C@](CCCCN3C(=O)c4ccccc4C3=O)(Cc3ccccc31)O2,inconclusive: 0.0008 µM [inhibitor],–
CC1(C)CC2(CCO1)N1CC3(C)CN2CC(C)(C1)C3O (configuration not stated),inactive,–
COc1cccc(CCNC(=O)c2c(O)nc3ccccn3c2=O)c1,"inconclusive: 3.98 µM [activator, partial curve]",–
O=C(NCc1ccc(Cl)cc1)c1ccc(NC(=O)C2CCCO2)cc1 (configuration not stated),"inconclusive: 8.91 µM [inhibitor, partial curve]",–
CCN(CC(=O)Nc1cc(Cl)ccc1C)c1ncnc2sc(C)c(C)c12,"inconclusive: 35.5 µM [inhibitor, single point]",–
CSc1nc2ccccc2cc1/C=C(\C#N)c1cccc(Cl)c1,"inconclusive: 3.98 µM [inhibitor, full curve]",–
COc1ccc(O)c(C(=O)c2cnn(-c3ccccc3)c2)c1,"inconclusive: 0.316 µM [activator, full curve, poor fit]",–
O=c1[nH]c(=O)n(Cc2ccccc2)c(O)c1C=NCCCn1ccnc1,"inconclusive: 0.794 µM [inhibitor, full curve, poor fit]",–

# Exported with bars between the fields: part of the list above.
SMILES | Potency | activity change, negative = inhibition
CCN(CC)C(=O)Cn1cc(SCC(=O)NC)c2ccccc21 | inactive | –
CNC(=O)C1C2C=CC3(O2)C1C(=O)N(CCOC)C3C(=O)NCc1ccc(OC)cc1 (configuration not stated) | inconclusive: 35.5 µM [activator, single point] | –

# Reference: PubChem BioAssay AID540276 (National Center for Advancing Translational Sciences (NCATS), 2011)
